Source: article PMC9449696
Results are given in words; binding and its absence hold for the method and conditions named. In cells and extracts the contact can be indirect. A yes stands for co-enrichment or nearness to the bait. Other partners may have been found. Tags and fused reporters may be left off the sequences shown.

Biological target: T1, GST-Spastin (UniProt B2RYN7)
T1 sequence: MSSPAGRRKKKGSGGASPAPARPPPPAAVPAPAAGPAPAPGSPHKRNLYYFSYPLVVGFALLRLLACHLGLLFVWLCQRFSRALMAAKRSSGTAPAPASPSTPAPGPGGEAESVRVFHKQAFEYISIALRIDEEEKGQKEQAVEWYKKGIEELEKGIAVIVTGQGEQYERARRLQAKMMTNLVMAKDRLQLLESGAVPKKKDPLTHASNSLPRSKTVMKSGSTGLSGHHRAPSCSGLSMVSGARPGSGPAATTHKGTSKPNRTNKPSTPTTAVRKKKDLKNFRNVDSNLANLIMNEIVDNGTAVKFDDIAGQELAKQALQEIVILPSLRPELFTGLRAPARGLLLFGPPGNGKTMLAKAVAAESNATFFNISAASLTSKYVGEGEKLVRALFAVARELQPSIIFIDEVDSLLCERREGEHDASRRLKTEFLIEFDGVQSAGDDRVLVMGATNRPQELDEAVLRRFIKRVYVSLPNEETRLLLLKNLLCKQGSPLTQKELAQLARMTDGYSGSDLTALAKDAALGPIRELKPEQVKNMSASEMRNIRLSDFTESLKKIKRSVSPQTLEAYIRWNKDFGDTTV
Test: affinity purification with mass spectrometry; GST-Spastin on beads used to pull down proteins from rat spinal cord lysate; incubated overnight at 4°C; precipitated proteins resolved on a gel, digested with trypsin, LC-MS/MS; only the target purified

binding: binds
B1: Protein disulfide isomerase A6 (PDIA6), endogenous (protein, UniProt Q63081 20-440)
chain: LYSSSDDVIELTPSNFNREVIQSDSLWLVEFYAPWCGHCQRLTPEWKKAASALKDVVKVGAVNADKHQSLGGQYGVQGFPTIKIFGANKNKPEDYQGGRTGEAIVDAALSALRQLVKDRLGGRSGGYSSGKQGRGDSSSKKDVVELTDDTFDKNVLDSEDVWMVEFYAPWCGHCKNLEPEWAAAATEVKEQTKGKVKLAAVDATVNQVLASRYGIKGFPTIKIFQKGESPVDYDGGRTRSDIVSRALDLFSDNAPPPELLEIINEDIAKKTCEEHQLCVVAVLPHILDTGATGRNSYLEVLLKLADKYKKKMWGWLWTEAGAQYELENALGIGGFGYPAMAAINARKMKFALLKGSFSEQGINEFLRELSFGRGSTAPVGGGSFPNITPREPWDGKDGELPVEDDIDLSDVELDDLEKDEL
